# According to PubChem BioAssay AID2685 (National Center for Advancing Translational Sciences (NCATS), 2010):
# This is one part of the list. Shown are side measurements of this screen, not its main read-out; they come without a call. Compounds called inactive in the main read-out are mostly missing here. Words in brackets tell the shape of the fitted curve; partial curves, single points and poor fits give uncertain potencies.
# Assay: qHTS Assay for Lipid Storage Modulators in Drosophila S3 Cells;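 for cell number change: cells counted by Cell Tracker Red CMTPX staining in the red channel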
# Conditions: BODIPY lipid droplet fluorescence, 18-24 h
# From the text: NIH Molecular Libraries Probe Production Centers Network [MLPCN] NIH Chemical Genomics Center [NCGC] MLPCN Grant: 1 R03 MH085686-01 Assay Submitter (PI): Beller, Mathias; Max-Planck-Institut fur Biophysikalische Chemie NCGC Assay Overview: Storing lipids as a reservoir for energy or the anabolism of elementary metabolites is a common feature of probably all cells and is conserved from bacteria to humans. The universal cellular lipid storage organelle is the so-called lipid storage droplet (LD). Although ubiquitous, LDs share a simple structure composed of a hydrophobic core that harbors the storage lipids, which is shielded by a droplet-specific phospholipid monolayer to which proteins are attached. The current model of LD biogenesis involves an incorporation of the lipid core into the membrane leaflets of the endoplasmic reticulum (ER) followed by a subsequent budding-like maturation of a LD, which ultimately pinches off. Once released, LD volume can increase by localized lipogenesis or fusion of existing droplet. Storage lipids are re-mobilized enzymatically by lipase activity. Lipase regulation in the adipocyte is heavily studied and involves multiple components including catecholamine signaling, the LD-associated proteins Perilipin and comparative gene identification (CGI-58) and at least two lipases named hormone sensitive lipase (HSL) and adipocyte triglyceride lipase (ATGL). LD regulation outside of the adipocyte is poorly understood and only few components are known. However, there is an urgent need to learn more about ectopic fat depots as mislocalized storage of lipids, for example in the liver or muscle, is an eminent health problem associated with insulin resistance or the metabolic syndrome. We developed a laser-scanning cytometer assay to enable 1,536-well screening and combined the results of the small molecules screen with an RNAi database based on lipid storage.
# Triacsin C (Sigma-Aldrich T-4540), an inhibitor of long-chain fatty acyl CoA synthetase that blocks synthesis of triglycerides, was used as a positive control for lipid under-storage. A total of 23 nL of compound solution of different concentrations were transferred to the assay plates using a Kalypsys pin tool equipped with a 1,536-pin array containing 10-nL slotted pins (FP1S10, 0.457-mm diameter, 50.8 mm long; V&P Scientific). One microliter of oleic acid (400 uM) was added, and the plate was lidded with stainless steel rubber gasket lined lids containing pinholes. […] Fluorescence was detected by excitation of the fluorophores with a 488-nm laser on an Acumen Explorer (TTP Lab Tech). […] Cells were detected using channel 3 (575-640 nm) with 5-um width and 100-um depth filters. The ratio of the number of objects in PMT channel 2 over the number of objects in PMT channel 3 was also calculated. […]
# [1] = measured here: cell number channel AC50, cells fed with added oleic acid
Structure (SMILES),AC50 [1],"cell number change (measured here: cell count max response, cells fed with added oleic acid)","AC50 (measured here: lipid fluorescence (Fed channel) AC50, cells fed with added oleic acid)"
COc1cc(/C=C2\C(=N)N3N=C(S(C)(=O)=O)SC3=NC2=O)ccc1OC(=O)c1cccs1,"0.326 µM [falling, full curve, poor fit]",–,–
Cc1cc(N2C(=O)C(O)=C(C(=O)c3cc4ccccc4o3)C2c2ccc(Cl)cc2)no1 (centres undefined),"29.1 µM [rising, single point]",70.3%,"29.1 µM [rising, single point]"
